Measured values taken from publication PMC10906229.
Results are given in words; binding and its absence hold for the method and conditions named. In cells and extracts the contact can be indirect. Some results given as binding are weak or reduced against the parent protein; the word gives no strength.

By UniProt entry, the sequences of proteins in these tests, tags left out. Residues count along the entry.
UniProt P09055, residues 21-798: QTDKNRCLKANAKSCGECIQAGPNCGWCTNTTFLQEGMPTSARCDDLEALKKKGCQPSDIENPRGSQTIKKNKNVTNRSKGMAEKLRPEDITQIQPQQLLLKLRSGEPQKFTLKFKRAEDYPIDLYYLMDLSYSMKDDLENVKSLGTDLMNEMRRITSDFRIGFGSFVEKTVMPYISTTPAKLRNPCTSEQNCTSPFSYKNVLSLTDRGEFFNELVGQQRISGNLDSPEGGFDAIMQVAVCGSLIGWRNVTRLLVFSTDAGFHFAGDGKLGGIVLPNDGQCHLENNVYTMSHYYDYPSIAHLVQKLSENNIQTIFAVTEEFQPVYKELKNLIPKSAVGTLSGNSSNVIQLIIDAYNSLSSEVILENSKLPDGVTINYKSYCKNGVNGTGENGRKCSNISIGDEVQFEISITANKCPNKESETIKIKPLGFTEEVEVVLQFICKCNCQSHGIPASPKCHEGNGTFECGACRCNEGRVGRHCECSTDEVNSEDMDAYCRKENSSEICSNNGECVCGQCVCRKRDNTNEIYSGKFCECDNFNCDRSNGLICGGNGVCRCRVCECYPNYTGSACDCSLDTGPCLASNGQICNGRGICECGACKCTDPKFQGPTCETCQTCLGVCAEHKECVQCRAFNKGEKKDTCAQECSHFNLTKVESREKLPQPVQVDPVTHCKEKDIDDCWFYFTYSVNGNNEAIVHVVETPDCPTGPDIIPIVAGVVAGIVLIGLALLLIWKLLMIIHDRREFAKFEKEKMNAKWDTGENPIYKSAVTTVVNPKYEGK
UniProt P35441, residues 19-1170: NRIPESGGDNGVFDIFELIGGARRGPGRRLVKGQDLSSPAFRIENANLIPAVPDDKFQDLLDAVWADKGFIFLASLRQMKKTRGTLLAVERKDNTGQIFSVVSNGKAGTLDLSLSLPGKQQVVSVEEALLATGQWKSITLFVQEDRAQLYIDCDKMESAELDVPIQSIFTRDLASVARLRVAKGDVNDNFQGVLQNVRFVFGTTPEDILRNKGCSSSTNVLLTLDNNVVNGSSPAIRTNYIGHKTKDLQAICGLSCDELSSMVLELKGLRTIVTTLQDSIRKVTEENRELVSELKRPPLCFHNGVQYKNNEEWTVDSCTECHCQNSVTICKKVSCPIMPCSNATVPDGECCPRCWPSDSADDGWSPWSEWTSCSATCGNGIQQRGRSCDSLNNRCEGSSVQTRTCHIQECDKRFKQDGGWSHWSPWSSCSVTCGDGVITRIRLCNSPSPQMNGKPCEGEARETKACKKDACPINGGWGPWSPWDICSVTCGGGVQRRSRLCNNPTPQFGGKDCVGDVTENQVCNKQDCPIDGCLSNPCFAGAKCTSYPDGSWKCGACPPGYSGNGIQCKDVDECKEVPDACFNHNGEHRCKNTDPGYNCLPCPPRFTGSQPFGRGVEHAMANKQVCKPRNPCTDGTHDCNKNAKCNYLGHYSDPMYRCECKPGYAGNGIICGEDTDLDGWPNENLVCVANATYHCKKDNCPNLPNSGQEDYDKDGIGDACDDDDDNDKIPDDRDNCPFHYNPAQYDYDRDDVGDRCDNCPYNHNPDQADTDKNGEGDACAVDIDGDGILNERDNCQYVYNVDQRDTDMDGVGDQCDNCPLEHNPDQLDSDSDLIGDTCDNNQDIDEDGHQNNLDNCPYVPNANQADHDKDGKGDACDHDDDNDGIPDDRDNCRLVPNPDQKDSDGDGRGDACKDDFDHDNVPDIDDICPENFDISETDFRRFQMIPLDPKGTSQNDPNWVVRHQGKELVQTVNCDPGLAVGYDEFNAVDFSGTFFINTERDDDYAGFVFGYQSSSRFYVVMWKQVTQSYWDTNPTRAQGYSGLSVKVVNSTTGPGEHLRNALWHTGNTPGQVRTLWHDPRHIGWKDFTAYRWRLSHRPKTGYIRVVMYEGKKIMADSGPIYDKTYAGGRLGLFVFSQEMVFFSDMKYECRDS

Molecular target: integrin β1 (ITGB1), Myc-labeled (UniProt P09055)
Test: co-IP; 293T cells co-transfected with Flag-labeled Thbs1 and Myc-labeled Itgb1 plasmids for 48 hours; precleaned lysates incubated with anti-Myc or anti-Flag magnetic beads; eluates blotted with anti-Flag or anti-Myc antibodies

binding: binds
Substance: thrombospondin 1 (THBS-1), Flag-labeled (from UniProt P35441 19-1170)
